In patent publication US20260062463A1 one finds binding data, which are given here for eight molecules.

One experiment addresses AAV9. The experiment is described as follows: SPR, AAV amine-coupled to a CM5 chip, nanobody injected at 100 to 1.5625 nM (top to bottom).
In a further experiment the target is AAV5. The description is as above.
The target in another experiment is AAV8. The experiment is described as above.
The target of experiment [1] is AAV8 (AAV8). The experiment in a line: sandwich ELISA: A4-040 coated as capture ligand, AAV8 standards, detection with HRP-conjugated A4-021, TMB, OD450. (In general: In an ELISA, binding on a coated surface is turned into a signal by an enzyme label.)
The target in experiment [2] is AAV8 (AAV8). The experiment in a line: sandwich ELISA, A4-040 coated as capture ligand, HRP-A4-021 as detector.
In experiment [3] the target is AAV8 (AAV8). The experiment is described as follows: direct ELISA and sandwich ELISA, HRP-conjugated A4-021 as detector.
The target in experiment [4] is AAV8 (AAV8). The experiment is described as follows: direct ELISA: AAV8 standards coated on the plate, detection with HRP-conjugated A4-021, TMB, OD450.
Experiment [5] deals with AAV8 (AAV8). The experiment is described as follows: SPR, AAV on CM5 chip. (In general: In SPR one partner is held on a chip, and binding of the other changes the refractive index at the surface.)
The target in a further experiment is AAV5 (AAV5). The experiment in a line: SPR, AAV on CM5 chip.
A further experiment deals with AAV9 (AAV9). The experiment is described as follows: SPR, AAV on CM5 chip.

These are yes or no findings as the source states them, for the method shown. Binding calls can cover weak binding; strength is not graded here.

B1: A4-001 (VHH)
VHH: VQLQESGGGLVQPGGSLRLSCAASGRSFSINTMGWYRQAPGKQRELVATVTRGGSTNYAGSVKGRFTISRDNAKNTVYLQMNSLRPEDTAVYYCHIDEVRQSSWTTSNIWGQGTQVTVSS
Regarding B1, the binding result in the experiment with AAV9, with AAV5 and in the experiment with AAV8 was “binds” in each case.

B2: A4-040 (VHH)
VHH: VQLQESGGGLVQPGGSLRLSCAASGRIFSINTMGWYRQAPGKQRELVATVTRGGSTNYADSVKGRFTISRDNAKNTVYLQMNSLRPEDTAVYYCHVDEIRQSSWTTSNLWGQGTQVTVSS
For the molecule B2, the binding entry with AAV8 (AAV8) [1] and with AAV8 (AAV8) [2] was “binds” each time.

B3: A4-003 (VHH)
VHH: VQLQESGGGLVQPGGSLRLSCVASGRSFSINTMGWYRQAPGKQRELVAAVTRGGSTNYAGSVKGRFTISRDNAKNTVYLQMNSLRPEDTAVYYCHIDEVRQSSWTTSNIWGQGTQVTVSS
As to B3, the binding result with AAV9, with AAV5 and with AAV8 was “binds” each time.

B4: A4-021 (VHH)
VHH: VQLQESGGGLVQAGGSLRLSCAASGSTFSINTMGWYRQAPGKQRELVATITRGGNTNYADSVKGRFTISRDNAKNTVYLQMNSLRPEDTAVYYCHVDEVRQSSWTTSNIWGQGTQVTVSS
modifications: HRP-conjugated (site not stated)
On to B4, for which the binding result in the experiment with AAV8 (AAV8) [1], with AAV8 (AAV8) [3] and with AAV8 (AAV8) [4] was “binds” in each case.

B5: A4-004 (VHH)
VHH: VQLQESGGGLVQPGGSLRLSCAASGSRFSINTMGWYRQAPGKQRELVAAVTRGGSTNYAGSVKGRFTISRDNAKNTVYLQMNSLRPEDTAVYYCHIDEVRQSSWTTSNIWGQGTQVTVSS
For the molecule B5, the binding entry in the experiment with AAV9, in the experiment with AAV5 and in the experiment with AAV8 was “binds” each time.

B6: A4-002 (VHH)
VHH: VQLQESGGGLVQPGGSLRLSCAASGRSFSINTMGWYRQAPGKQRELVAAVTRGGSTNYAGSVKGRFTISRDNAKNTVYLQMNSLRPEDTAVYYCHIDEVRQSSWTTSNIWGQGTQVTVSS
For the molecule B6, the binding entry with AAV9, with AAV5 and with AAV8 was “binds” in each case.

B7: A4-H2 (VHH)
VHH: VQLQASGGGFVQPGGSLRLSCAASGRSFSINTMGWFRQAPGKEREFVAVVTRGGSTYYADSVKGRFTISRDNSKNTVYLQMNSLRAEDTATYYCHIDEVRQSSWTTSNIWGQGTQVTVSS
In the case of B7, the binding result with AAV8 (AAV8) [5], with AAV5 (AAV5) and in the experiment with AAV9 (AAV9) was “binds” in each case.

B8: A4-H1 (VHH)
VHH: VQLVESGGGLVQPGGSLRLSCAASGRSFSINTMGWFRQAPGKGLEAVAIVTRGGSTYYADSVKGRFTISRDNSKNTLYLQMNSLRAEDTAVYYCHIDEVRQSSWTTSNIWGQGTLVTVSS
B8: the binding entry with AAV8 (AAV8) [5], in the experiment with AAV5 (AAV5) and in the experiment with AAV9 (AAV9) was “binds” each time.
